Data on 2 molecules can be found in PMC7949057, “The cytoprotective protein MANF promotes neuronal survival independently from its role as a GRP78 cofactor” (The Journal of Biological Chemistry, 2021).

The chains behind the UniProt entries cited, without tags or fusion partners. Residues count along the entry.
UniProt G3I8R9, residues 19-654: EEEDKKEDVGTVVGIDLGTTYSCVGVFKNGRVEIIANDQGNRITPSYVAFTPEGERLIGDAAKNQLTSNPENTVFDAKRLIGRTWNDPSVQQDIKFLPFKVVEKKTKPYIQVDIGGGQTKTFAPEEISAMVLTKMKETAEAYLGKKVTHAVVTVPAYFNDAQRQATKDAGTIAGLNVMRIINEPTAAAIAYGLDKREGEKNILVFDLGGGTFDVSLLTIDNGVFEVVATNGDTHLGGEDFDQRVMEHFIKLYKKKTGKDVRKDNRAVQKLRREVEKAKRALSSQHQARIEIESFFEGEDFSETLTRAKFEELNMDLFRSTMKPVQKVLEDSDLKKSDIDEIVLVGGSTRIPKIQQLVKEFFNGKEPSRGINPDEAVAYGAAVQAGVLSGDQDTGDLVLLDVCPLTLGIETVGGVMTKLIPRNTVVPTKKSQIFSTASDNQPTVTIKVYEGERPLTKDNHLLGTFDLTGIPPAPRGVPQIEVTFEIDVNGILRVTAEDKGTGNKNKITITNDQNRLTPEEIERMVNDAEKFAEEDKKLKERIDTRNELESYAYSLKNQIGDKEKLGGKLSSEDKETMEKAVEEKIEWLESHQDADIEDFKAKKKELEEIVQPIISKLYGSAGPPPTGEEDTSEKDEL

These are yes or no findings as the source states them, for the method shown. For part of these data: Binding seen in cells or lysates may run through a third protein. Some entries that bind do so weakly or less than the wild type. For part of these data: Sequences can lack the tags named with a protein.

The target of test [1] is T1, MANF N-terminally tagged with a Venus fragment (pre-NV-MANF or pre-CV-MANF) (human) (UniProt P55145).
T1 sequence: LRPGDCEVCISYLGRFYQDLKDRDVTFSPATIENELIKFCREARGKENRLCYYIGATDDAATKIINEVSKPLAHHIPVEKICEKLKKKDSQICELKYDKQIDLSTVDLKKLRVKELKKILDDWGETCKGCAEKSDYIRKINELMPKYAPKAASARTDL
The experiment in a line: split reporter; split Venus BiFC (NV, VN173 and CV, VC155) in co-transfected HEK293 cells, fixed 20 to 24 h after transfection, confocal imaging, ER shown by anti-calreticulin.

For test [2], the target named is Recombinant hamster GRP78 protein (hamster) (UniProt G3I8R9). The experiment in a line: MST; as a4, in the presence of AMP-PNP; both purified.
The target is the same in test [3]. The experiment in a line: MST; as a4, in the presence of ATP (2 mM by the discussion); both purified.

B1: GRP170 (HYOU1) fused with a Venus fragment (BiFC) (protein, UniProt Q9Y4L1 33-999)
chain: LAVMSVDLGSESMKVAIVKPGVPMEIVLNKESRRKTPVIVTLKENERFFGDSAASMAIKNPKATLRYFQHLLGKQADNPHVALYQARFPEHELTFDPQRQTVHFQISSQLQFSPEEVLGMVLNYSRSLAEDFAEQPIKDAVITVPVFFNQAERRAVLQAARMAGLKVLQLINDNTATALSYGVFRRKDINTTAQNIMFYDMGSGSTVCTIVTYQMVKTKEAGMQPQLQIRGVGFDRTLGGLEMELRLRERLAGLFNEQRKGQRAKDVRENPRAMAKLLREANRLKTVLSANADHMAQIEGLMDDVDFKAKVTRVEFEELCADLFERVPGPVQQALQSAEMSLDEIEQVILVGGATRVPRVQEVLLKAVGKEELGKNINADEAAAMGAVYQAAALSKAFKVKPFVVRDAVVYPILVEFTREVEEEPGIHSLKHNKRVLFSRMGPYPQRKVITFNRYSHDFNFHINYGDLGFLGPEDLRVFGSQNLTTVKLKGVGDSFKKYPDYESKGIKAHFNLDESGVLSLDRVESVFETLVEDSAEEESTLTKLGNTISSLFGGGTTPDAKENGTDTVQEEEESPAEGSKDEPGEQVELKEEAEAPVEDGSQPPPPEPKGDATPEGEKATEKENGDKSEAQKPSEKAEAGPEGVAPAPEGEKKQKPARKRRMVEEIGVELVVLDLPDLPEDKLAQSVQKLQDLTLRDLEKQEREKAANSLEAFIFETQDKLYQPEYQEVSTEEQREEISGKLSAASTWLEDEGVGATTVMLKEKLAELRKLCQGLFFRVEERKKWPERLSALDNLLNHSSMFLKGARLIPEMDQIFTEVEMTTLEKVINETWAWKNATLAEQAKLPATEKPVLLSKDIEAKMMALDREVQYLLNKAKFTKPRPRPKDKNGTRAEPPLNASASDQGEKVIPPAGQTEDAEPISEPEKVETGSEPGDTEPLELGGPGAEPEQKEQSTGQKRPLKNDEL
As to B1, the binding result in test [1] is “binds”.
For the molecule HTFPAVL [CH1-derived substrate peptide (HTFPAVL)], the binding entry is recorded as “no binding (condition: with AMP-PNP)” in test [2] and “no binding (condition: with ATP)” in test [3].
